The target in the test is T1, K+/Cl- co-transporter KCC2 (mouse (endogenous in mouse forebrain)), Q91V14.
T1 chain: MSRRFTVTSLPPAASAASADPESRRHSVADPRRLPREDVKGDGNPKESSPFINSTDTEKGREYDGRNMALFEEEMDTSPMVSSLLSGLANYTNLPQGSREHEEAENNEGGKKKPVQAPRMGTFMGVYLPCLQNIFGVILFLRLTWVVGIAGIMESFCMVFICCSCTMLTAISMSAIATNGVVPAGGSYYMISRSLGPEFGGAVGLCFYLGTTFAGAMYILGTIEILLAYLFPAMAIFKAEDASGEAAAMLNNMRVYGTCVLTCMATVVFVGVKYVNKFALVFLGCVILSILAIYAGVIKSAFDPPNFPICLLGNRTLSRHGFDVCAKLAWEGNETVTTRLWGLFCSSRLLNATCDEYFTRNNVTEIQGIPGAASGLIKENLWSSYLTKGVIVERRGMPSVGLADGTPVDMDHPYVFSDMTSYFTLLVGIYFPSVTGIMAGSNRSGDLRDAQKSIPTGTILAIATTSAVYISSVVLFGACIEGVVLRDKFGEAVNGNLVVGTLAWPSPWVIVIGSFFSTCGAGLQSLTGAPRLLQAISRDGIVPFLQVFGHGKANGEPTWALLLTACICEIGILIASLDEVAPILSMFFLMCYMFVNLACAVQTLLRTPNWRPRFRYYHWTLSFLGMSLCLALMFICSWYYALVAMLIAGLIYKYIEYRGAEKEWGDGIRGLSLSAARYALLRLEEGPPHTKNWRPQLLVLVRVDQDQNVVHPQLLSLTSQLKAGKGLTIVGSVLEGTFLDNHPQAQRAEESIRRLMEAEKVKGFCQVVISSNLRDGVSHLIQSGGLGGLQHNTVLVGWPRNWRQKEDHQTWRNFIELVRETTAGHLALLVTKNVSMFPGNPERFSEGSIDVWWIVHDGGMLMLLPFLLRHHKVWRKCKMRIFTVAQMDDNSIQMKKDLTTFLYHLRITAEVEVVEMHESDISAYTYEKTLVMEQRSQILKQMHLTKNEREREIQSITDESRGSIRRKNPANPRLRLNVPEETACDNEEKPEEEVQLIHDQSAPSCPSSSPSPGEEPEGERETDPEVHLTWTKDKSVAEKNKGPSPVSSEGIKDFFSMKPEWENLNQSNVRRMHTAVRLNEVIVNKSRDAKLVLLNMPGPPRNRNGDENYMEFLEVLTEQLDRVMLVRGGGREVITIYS
Put plainly: affinity purification with mass spectrometry. The note with it: remark: other sources report otherwise.

These are yes or no findings as the source states them, for the method shown. Binding seen in cells or lysates may run through a third protein. These calls come from enrichment with a bait or labelling near it, and not all partners need be listed. A no says only that the protein was not detected with the bait.

B1: GRIK2, P39087 32-908 (receptor)
chain: TTHVLRFGGIFEYVESGPMGAEELAFRFAVNTINRNRTLLPNTTLTYDTQKINLYDSFEASKKACDQLSLGVAAIFGPSHSSSANAVQSICNALGVPHIQTRWKHQVSDNKDSFYVSLYPDFSSLSRAILDLVQFFKWKTVTVVYDDSTGLIRLQELIKAPSRYNLRLKIRQLPADTKDAKPLLKEMKRGKEFHVIFDCSHEMAAGILKQALAMGMMTEYYHYIFTTLDLFALDVEPYRYSGVNMTGFRILNTENTQVSSIIEKWSMERLQAPPKPDSGLLDGFMTTDAALMYDAVHVVSVAVQQFPQMTVSSLQCNRHKPWRFGTRFMSLIKEAHWEGLTGRITFNKTNGLRTDFDLDVISLKEEGLEKIGTWDPSSGLNMTESQKGKPANITDSLSNRSLIVTTILEEPYVLFKKSDKPLYGNDRFEGYCIDLLRELSTILGFTYEIRLVEDGKYGAQDDVNGQWNGMVRELIDHKADLAVAPLAITYVREKVIDFSKPFMTLGISILYRKPNGTNPGVFSFLNPLSPDIWMYILLAYLGVSCVLFVIARFSPYEWYNPHPCNPDSDVVENNFTLLNSFWFGVGALMQQGSELMPKALSTRIVGGIWWFFTLIIISSYTANLAAFLTVERMESPIDSADDLAKQTKIEYGAVEDGATMTFFKKSKISTYDKMWAFMSSRRQSVLVKSNEEGIQRVLTSDYAFLMESTTIEFVTQRNCNLTQIGGLIDSKGYGVGTPMGSPYRDKITIAILQLQEEGKLHMMKEKWWRGNGCPEEESKEASALGVQNIGGIFIVLAAGLVLSVFVAVGEFLYKSKKNAQLEKRSFCSAMVEELRMSLKCQRRLKHKPQAPVIVKTEEVINMHTFNDRRLPGKETMA
Turning to B1, the binding entry is “no binding”.

Values taken from article doi:10.1101/2020.03.02.973859.
